# Results from one PubChem assay

The results are deposited in PubChem (AID1159506; NCATS, 2015).

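Luminescence from an EWS-FLI1 target-promoter (NR0B1) reporter, set against a CMV-promoter reporter, two days after silencing single genes in TC32 Ewing sarcoma cells.
Each siRNA was applied at 20 nM.
A z-score of the log NR0B1-over-CMV signal, less the median of siRNAs with the same seed; more negative means a stronger specific loss of the NR0B1 reporter.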

This is part of the screen; most of the strongest results are not listed here.
Sequences are the guide (antisense) strand, without overhang.

| Sequence | gene | seed-corrected z-score |
|---|---|---|
| `UCUGCAAUUAGGACAAAGG` | OR4C15 | -0.4628 |
| `AACAUGUAAGCCGUCCUCC` | CTAG2 | 1.401 |
| `UCUGUAAGCAGACAAUCGC` | AHCTF1 | -0.5574 |
| `UAACUGAUCCUCUAUAGGC` | PCMTD1 | 0.2406 |
| `UUCCUUUCCGGUUUGUCUG` | FLJ45513 | -0.3569 |
| `UUAUCAUCUGCUGAGGGUG` | NPIPB3 | 0.06288 |
| `UUUCCGAAAUACUUAGUUC` | MPHOSPH10 | 0.04943 |
| `UUUGGUGACUUGGAGUCCC` | HIST1H1T | -0.4343 |
| `UACGUUUUAAACUCACAAG` | HSF2 | -0.02576 |
| `UAACUCGCAGUGCUAAUGC` | LYST | -0.01459 |
| `UUCAACCCAAGCAUUAAUC` | SERPINB11 | 0.3145 |
| `AGUCCAAUCACCUUCAUCC` | NBPF3 | 2.611 |
| `UCUUGAACCGCUGUCUUCC` | BCOR | 0.07351 |
| `AUACUUAUCCGCUGAGGCC` | LINC01376 | -0.8491 |
| `UGAGCAACAACGCGAAGGG` | DHRS1 | -0.1853 |
| `UAUUUGACCUUAGUGUUCC` | B3GNT4 | 0.1085 |
| `AAACUUAUCCAUUGCAACG` | B4GALT1 | 0.5371 |
| `UUGAUAUUAAGAACCUUAG` | BPIFB3 | 1.615 |
| `UGUUGUGCUGGUGCAUCCG` | NMNAT3 | -1.388 |
| `UAGCUAAUUCAGGAACUGC` | METTL3 | 0.3738 |
| `AUCAGAUCGACAUCAUUGU` | BCKDK | -0.4268 |
| `UCUUCUUUCGCAGUGCUUC` | ATXN7L2 | -0.04825 |
| `AAGAGAUUAAUCCAUAUGC` | CCKAR | 0.07893 |
| `UAUGAUCUACCACAGUUCC` | PIWIL2 | -1.682 |
| `UGCUUGUCGAACUUGACCG` | CHD5 | 0.2983 |
| `AAGAGGUCUAGCUAUCUCC` | NES | -0.8067 |
| `UUAUUAAACCGGUUGAGCU` | SLC9A1 | 0.4199 |
| `UUUAUUAUAGGCUUGUUCC` | MED19 | 1.719 |
| `UAACUUAGUAAGAUAACUC` | SLFN12L | 0.3827 |
| `UCACUGUAAAUACAAUCCC` | OR2T11 | -0.3213 |
| `AAAGGAAUUAAUCUGAGUC` | OSTF1 | 0.2616 |
| `AAUGUCGUAACCGUGGAUC` | KIAA1462 | -1.053 |
| `UUGGGACCCAUCAUGAUGC` | CATSPER1 | -0.8812 |
| `GGAGUACCUAAGCCAGAGG` | MT1CP | 0.1783 |
| `AAUAGUAUUCAUAAGGUAG` | TM9SF4 | -0.4065 |
| `UAGGAAAUCCUUAUAGACC` | CFAP100 | 0.163 |
| `UGAUUGUUGACCACUAGCC` | TFR2 | 0.2187 |
| `AAUAGUCUCCUCGAGAUCC` | SOST | 0.5843 |
| `UUUGGGUCAGAGGUAGCAG` | DTD1 | -0.1365 |
| `AACGGAAACCGGUGGAAGG` | THAP3 | -0.1553 |
| `UACGUCUCUGAAUAGAUGG` | MUTYH | 0.09255 |
| `ACUGGAUCCAUUUCCCAGC` | KRTAP13-4 | -0.8228 |
| `UAAGGUAAGCCUAUCACCG` | TMEM99 | -0.155 |
| `UUGUUGAUAGGAAACCUCC` | PLEKHH1 | 0.4537 |
| `AAGCUAGACAGGAAUGCCA` | NIPAL4 | 1.153 |
| `AUAUGUUGUAGAGUCUCCC` | KCNIP4 | -0.4553 |
| `AGAGCUAUAAUCUCCUGCC` | CDK5RAP3 | 1.174 |
| `UCGUCAUCAUCUGCCGUCG` | NOL4L | -0.007185 |
| `UUACUUUGAGGGAAGACCC` | SIRT1 | -0.6306 |
| `UAGGAGUCAAGGUCGGAGU` | TRNP1 | -1.27 |
| `UUCCCUUUACUAGAGGAUC` | GNG11 | -0.06559 |
| `UUUGUAAUGUUGAAACAGC` | EMCN | 0.0701 |
| `UGUUUGUCAAACCCAAGGC` | MTHFS | -0.8738 |
| `UGAUUAACAAGGUCCCAUG` | ALKBH3 | -1.243 |
| `AUAGUAGCUGGAGGCCUGC` | SOX8 | 1.154 |
| `UUACGAGACAGAUCCAGGG` | ZNF415 | 2.032 |
| `UUACUUUGAGUGUAUCUGC` | DDX27 | -0.2214 |
| `UUCUGUUCAGUAGACAUCA` | SMIM24 | -0.5746 |
| `AAACCAACAGUUCCCGGCC` | SYPL2 | 0.02139 |
| `AUCAUGUAGAUGUAGAGUU` | OR2W5 | 0.5084 |
| `UUCUGGAUAACGGAGCUUC` | LOC644090 | 0.214 |
| `UAUAGGAUGGUAGGCAUUG` | KIF1BP | 0.5868 |
| `UUUCCACCAGGCAAAGACG` | C16orf58 | 0.5839 |
| `UCUGGUAUCAUGUAUCAUC` | NUDT16 | -0.253 |
| `ACAAAGAUCAUCCAGACAC` | OPN1MW | -0.2434 |
| `AUUGGAACAUACUUAUACG` | BMP15 | 0.9265 |
| `AGAGAUCUCAAGAAGAGGG` | SETP4 | 0.9446 |
| `AUUGGUGUUGUAUUCCUCG` | GAK | -0.2025 |

For reference, 8 entries once more:

Sequence	gene	seed-corrected z-score
UUGUUGAUAGGAAACCUCC	PLEKHH1	0.4537
UUAUCAUCUGCUGAGGGUG	NPIPB3	0.06288
AAGCUAGACAGGAAUGCCA	NIPAL4	1.153
UGAGCAACAACGCGAAGGG	DHRS1	-0.1853
UUUAUUAUAGGCUUGUUCC	MED19	1.719
UUCAACCCAAGCAUUAAUC	SERPINB11	0.3145
ACUGGAUCCAUUUCCCAGC	KRTAP13-4	-0.8228
AGAGCUAUAAUCUCCUGCC	CDK5RAP3	1.174